By UniProt entry, the sequences of proteins in these tests, tags left out. Where a name states a change or a piece, a line headed by the entry shows the natural chain unless it says otherwise. Chains listed by the source or under a name are the forms on record and can include a tag or linker.
GFP-Nup98^1–920 (P52948, form named): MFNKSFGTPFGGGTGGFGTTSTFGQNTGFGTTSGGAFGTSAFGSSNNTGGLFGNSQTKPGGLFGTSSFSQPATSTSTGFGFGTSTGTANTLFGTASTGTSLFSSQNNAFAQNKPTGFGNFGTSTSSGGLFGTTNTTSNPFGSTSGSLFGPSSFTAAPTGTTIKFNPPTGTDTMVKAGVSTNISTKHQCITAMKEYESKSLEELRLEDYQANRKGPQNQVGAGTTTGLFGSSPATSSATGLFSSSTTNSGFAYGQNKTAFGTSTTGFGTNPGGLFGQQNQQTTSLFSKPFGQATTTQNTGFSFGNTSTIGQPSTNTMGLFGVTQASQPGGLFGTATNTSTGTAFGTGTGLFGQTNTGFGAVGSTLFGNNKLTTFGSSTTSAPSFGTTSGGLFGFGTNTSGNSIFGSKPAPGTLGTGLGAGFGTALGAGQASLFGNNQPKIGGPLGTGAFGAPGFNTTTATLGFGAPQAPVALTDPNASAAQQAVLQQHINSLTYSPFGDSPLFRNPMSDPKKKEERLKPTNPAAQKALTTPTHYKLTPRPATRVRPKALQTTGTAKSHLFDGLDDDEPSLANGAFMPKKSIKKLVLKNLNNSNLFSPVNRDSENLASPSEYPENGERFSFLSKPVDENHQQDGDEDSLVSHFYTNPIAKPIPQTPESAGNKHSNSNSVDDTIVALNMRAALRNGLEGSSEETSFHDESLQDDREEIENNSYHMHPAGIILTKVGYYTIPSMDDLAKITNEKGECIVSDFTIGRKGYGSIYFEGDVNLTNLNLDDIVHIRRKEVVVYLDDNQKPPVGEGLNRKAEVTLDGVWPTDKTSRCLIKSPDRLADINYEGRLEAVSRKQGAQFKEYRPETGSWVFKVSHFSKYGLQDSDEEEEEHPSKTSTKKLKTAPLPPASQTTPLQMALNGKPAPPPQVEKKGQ
UniProt Q9NR30: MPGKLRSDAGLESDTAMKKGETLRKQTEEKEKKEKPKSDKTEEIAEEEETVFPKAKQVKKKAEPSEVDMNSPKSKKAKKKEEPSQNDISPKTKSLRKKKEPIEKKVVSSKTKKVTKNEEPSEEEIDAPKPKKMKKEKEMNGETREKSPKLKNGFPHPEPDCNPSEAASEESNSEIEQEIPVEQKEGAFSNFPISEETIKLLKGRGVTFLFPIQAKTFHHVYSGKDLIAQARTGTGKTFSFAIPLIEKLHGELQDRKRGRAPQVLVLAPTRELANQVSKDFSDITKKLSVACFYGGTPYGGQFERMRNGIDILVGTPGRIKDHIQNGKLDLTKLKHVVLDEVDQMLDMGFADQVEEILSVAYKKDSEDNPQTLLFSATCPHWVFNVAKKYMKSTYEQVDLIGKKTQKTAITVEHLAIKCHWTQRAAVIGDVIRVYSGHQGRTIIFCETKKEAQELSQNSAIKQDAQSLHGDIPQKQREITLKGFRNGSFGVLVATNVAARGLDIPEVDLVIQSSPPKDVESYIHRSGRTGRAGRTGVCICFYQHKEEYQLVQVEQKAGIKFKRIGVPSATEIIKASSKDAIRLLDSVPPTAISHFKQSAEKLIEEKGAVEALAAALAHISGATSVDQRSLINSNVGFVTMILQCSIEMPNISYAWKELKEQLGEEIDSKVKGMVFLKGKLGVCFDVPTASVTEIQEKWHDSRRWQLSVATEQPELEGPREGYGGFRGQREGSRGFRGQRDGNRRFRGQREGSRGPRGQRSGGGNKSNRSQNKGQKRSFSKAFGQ
UniProt O43143: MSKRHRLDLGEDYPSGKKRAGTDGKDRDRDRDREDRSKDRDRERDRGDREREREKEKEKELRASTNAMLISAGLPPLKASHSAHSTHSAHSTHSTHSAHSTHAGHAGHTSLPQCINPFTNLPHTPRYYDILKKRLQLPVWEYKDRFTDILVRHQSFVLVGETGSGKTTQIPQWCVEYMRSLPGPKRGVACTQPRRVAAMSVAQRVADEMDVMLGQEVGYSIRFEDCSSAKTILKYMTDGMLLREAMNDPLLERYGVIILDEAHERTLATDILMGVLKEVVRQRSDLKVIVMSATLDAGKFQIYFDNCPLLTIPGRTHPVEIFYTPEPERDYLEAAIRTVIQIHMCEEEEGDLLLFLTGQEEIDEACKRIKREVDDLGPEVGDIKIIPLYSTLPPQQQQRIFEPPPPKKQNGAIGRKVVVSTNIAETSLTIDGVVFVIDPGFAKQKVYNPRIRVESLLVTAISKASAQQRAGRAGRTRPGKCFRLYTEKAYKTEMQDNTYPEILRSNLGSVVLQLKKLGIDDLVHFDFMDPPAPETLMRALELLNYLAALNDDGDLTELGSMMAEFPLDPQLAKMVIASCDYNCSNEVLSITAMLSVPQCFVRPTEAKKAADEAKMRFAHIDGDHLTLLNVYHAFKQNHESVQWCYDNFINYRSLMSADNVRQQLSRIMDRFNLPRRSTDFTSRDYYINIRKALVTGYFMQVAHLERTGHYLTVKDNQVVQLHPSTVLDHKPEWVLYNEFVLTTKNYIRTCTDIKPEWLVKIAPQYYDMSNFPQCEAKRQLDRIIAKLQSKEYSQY
UniProt P17844: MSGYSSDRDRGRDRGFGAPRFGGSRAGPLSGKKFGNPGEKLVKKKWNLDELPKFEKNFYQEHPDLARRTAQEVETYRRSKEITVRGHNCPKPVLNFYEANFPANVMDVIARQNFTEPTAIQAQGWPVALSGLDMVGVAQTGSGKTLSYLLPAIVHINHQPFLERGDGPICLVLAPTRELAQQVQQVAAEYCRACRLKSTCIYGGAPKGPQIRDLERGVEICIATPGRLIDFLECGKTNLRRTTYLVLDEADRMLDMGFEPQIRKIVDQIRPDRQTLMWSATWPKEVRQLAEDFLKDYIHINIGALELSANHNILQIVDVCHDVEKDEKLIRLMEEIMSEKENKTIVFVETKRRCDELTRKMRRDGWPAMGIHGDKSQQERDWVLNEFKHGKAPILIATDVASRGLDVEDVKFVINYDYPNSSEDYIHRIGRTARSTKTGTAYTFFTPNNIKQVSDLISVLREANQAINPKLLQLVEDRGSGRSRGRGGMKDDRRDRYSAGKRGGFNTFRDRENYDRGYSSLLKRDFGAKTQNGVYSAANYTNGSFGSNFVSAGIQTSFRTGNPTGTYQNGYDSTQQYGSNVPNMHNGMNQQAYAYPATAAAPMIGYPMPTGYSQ
UniProt Q92841: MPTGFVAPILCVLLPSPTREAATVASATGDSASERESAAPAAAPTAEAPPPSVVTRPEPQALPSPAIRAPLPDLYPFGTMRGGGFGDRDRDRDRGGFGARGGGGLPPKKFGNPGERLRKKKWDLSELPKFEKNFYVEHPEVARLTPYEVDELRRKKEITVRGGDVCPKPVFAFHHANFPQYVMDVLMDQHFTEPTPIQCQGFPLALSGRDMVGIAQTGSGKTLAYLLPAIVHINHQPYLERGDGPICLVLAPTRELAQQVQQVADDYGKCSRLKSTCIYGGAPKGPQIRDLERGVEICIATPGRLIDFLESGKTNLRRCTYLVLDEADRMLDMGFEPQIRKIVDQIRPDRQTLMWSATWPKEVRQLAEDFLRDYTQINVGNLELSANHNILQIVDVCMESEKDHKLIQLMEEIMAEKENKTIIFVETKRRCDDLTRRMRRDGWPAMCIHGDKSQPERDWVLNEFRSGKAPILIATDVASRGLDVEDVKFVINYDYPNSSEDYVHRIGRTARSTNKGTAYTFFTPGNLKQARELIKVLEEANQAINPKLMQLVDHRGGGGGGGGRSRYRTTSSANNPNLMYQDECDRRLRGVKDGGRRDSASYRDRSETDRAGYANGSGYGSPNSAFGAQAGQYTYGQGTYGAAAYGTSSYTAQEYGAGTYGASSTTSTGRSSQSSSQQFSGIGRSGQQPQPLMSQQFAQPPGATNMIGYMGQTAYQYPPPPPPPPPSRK
UniProt O14980: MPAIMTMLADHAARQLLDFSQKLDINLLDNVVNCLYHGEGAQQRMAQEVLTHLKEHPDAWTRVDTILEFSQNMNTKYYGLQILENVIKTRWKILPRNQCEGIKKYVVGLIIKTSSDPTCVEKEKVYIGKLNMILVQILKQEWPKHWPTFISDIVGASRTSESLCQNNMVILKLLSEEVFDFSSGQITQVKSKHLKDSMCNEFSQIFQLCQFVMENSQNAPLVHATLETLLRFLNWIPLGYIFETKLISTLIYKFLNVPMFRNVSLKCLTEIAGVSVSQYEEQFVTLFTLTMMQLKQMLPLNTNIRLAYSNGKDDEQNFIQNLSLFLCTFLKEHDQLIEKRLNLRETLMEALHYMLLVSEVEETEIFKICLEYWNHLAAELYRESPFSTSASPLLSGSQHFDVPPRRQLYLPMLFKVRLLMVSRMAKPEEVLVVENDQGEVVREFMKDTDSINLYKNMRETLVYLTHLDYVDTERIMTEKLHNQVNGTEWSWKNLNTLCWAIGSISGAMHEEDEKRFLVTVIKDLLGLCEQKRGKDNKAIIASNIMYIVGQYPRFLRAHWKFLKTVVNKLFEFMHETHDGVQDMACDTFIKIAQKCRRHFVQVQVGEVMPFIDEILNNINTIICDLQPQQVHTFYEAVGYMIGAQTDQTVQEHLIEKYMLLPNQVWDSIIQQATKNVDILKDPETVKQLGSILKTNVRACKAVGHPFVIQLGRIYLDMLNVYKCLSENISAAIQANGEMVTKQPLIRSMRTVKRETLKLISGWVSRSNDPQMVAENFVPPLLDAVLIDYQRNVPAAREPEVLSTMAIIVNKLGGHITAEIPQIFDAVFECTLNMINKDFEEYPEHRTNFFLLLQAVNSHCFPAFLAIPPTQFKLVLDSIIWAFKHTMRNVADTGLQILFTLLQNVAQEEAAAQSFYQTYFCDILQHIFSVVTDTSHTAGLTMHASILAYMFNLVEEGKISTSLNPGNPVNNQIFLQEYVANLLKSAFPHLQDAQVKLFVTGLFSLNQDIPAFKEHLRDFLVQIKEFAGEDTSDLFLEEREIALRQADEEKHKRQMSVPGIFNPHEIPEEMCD

According to publication PMC5338925:

These substances were tested against GFP-Nup98^1–920 (human) (UniProt P52948) (assay: affinity purification with mass spectrometry; GFP-Nup98 immunoprecipitated with anti-GFP on Protein G Dynabeads from HEK293T whole cell lysate (NP-40 cell lysis buffer, 250 mM NaCl, pH 7.4); SDS-PAGE, in-gel digestion, LC-MS/MS).

Row | Substance | binding
1 | DDX21 (from UniProt Q9NR30 1-783) | binds
2 | DHX15 (from UniProt O43143 1-795) | binds

The next lines start with the values.

Row | binding | Substance
3 | binds | DDX5 (from UniProt P17844 1-614)
4 | binds | DDX17 (from UniProt Q92841 1-729)
5 | binds | CRM1 (from UniProt O14980 1-1071)

These are yes or no findings as the source states them, for the method shown. In cells and extracts the contact can be indirect. Here binding means that the protein was enriched with, or labelled near, the bait; the list need not be complete.
